These are yes or no findings as the source states them, for the method shown. Some entries that bind do so weakly or less than the wild type.
Legend:
[1] = biological target: T1, canine PD-L1-Ig (canine; rabbit) (UniProt E2RKZ5); experiment: blocking ELISA: biotinylated canine PD-L1-Ig pre-incubated with the antibody, then added to immobilised canine PD-1-Ig (blocked ligand: canine PD-1-Ig)
T1 sequence (chain, by the resolver, biotinylated in the ELISA): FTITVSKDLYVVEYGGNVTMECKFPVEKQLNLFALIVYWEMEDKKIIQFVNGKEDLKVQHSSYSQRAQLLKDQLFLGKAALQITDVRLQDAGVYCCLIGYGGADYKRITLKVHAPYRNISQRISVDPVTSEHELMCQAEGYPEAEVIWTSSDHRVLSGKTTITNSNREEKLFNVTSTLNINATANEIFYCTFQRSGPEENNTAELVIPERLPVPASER

[2] = biological target: T1, canine PD-L1-Ig (canine; rabbit); experiment: blocking ELISA: canine PD-L1-Ig pre-incubated with the antibody, then added to immobilised canine PD-1-Ig (blocked ligand: canine PD-1-Ig) [panel PD-1/PD-L1 Binding Inhibition]
[3] = biological target: T1, canine PD-L1-Ig (canine; rabbit); experiment: blocking ELISA: canine PD-L1-Ig pre-incubated with the antibody, then added to immobilised canine CD80-Ig (blocked ligand: canine CD80-Ig) [panel CD80/PD-L1 Binding Inhibition]

Measured: binding

B1: rat anti-bovine PD-L1 monoclonal antibody 4G12 (antibody, V domains shown)
VH: QVQLQQSGAELVKPGSSVKISCKASGYTFTSNFMHWVKQQPGNGLEWIGWIYPEYGNTKYNQKFDGKATLTADKSSSTAYMQLSSLTSEDSAVYFCASEEAVISLVYWGQGTLVTVSS
VL: DIAITQSPSSVAVSVGETVTLSCKSSQSLLYSENQKDYLGWYQQKPGQTPKPLIYWATNRHTGVPDRFTGSGSGTDFTLIISSVQAEDLADYYCGQYLVYPFTFGPGTKLELK
binds: all assays above

B2: rat-canine chimeric anti-PD-L1 antibody c4G12 (antibody, V domains shown)
VH: B1 VH
VL: DIAITQSPSSVAVSVGETVTLSCKSSQSLLYSENQKDYLGWYQQKPGQTPKPLIYWATNRHTGVPDRFTGSGSGTDFTLIISSVQAEDLADYYCGQYLVYPFTFGPGTKLELKQ
binds: all assays above

From patent US20250066483A1
